Experimental data: PMC8879615
These are yes or no findings as the source states them, for the method shown. Binding seen in cells or lysates may run through a third protein. Some binding calls cover weakened binding; strength is not graded here.

Protein sequences, listed by entry. Tags and fused reporters are not part of them. Lines headed by an entry give the natural chain unless they say otherwise; changes in a name come on top.
UniProt P70536: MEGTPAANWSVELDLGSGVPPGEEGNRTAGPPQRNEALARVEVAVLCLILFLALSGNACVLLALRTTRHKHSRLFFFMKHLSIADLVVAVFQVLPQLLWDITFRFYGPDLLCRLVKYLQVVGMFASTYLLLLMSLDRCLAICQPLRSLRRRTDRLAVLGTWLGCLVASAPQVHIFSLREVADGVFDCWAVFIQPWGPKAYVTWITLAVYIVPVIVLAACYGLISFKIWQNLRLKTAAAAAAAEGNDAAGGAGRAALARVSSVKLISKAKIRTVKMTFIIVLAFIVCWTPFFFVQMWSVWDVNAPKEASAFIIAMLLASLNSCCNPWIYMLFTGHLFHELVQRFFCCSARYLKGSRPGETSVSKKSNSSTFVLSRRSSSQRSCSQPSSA
UniProt P30543: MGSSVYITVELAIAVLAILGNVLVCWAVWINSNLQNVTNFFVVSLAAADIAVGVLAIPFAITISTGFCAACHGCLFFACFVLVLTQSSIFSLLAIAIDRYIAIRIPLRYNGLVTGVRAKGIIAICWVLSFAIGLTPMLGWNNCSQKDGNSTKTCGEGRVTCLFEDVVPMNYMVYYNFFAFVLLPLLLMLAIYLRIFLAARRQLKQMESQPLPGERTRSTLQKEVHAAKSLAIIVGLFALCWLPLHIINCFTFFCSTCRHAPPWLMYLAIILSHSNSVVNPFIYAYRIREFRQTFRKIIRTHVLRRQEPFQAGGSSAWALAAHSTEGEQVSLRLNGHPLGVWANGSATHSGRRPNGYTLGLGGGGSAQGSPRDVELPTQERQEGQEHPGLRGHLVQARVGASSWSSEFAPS

B1: flotillin-1 (protein, UniProt Q9Z1E1 1-428)
chain: MFFTCGPNEAMVVSGFCRSPPVMVAGGRVFVLPCIQQIQRISLNTLTLNVKSEKVYTRHGVPISVTGIAQVKIQGQNKEMLAAACQMFLGKTEAEIAHIALETLEGHQRAIMAHMTVEEIYKDRQKFSEQVFKVASSDLVNMGISVVSYTLKDIHDDQDYLHSLGKARTAQVQKDARIGEAEAKRDAGIREAKAKQEKVSAQCLSEIEMAKAQRDYELKKATYDIEVNTRRAQADLAYQLQVAKTKQQIEEQRVQVQVVERAQQVAVQEQEIARREKELEARVRKPAEAERYRLERLAEAEKAQLIMQAEAEAESVRMRGEAEAFAVGARARAEAEQMAKKAEAFQMYQEAAQLDMLLEKLPQVAEEISGPLTSANKITLVSSGSGTMGAAKVTGEVLDILSRLPESVERLTGVSISQVNHNKPLRTA

What was measured:
[1] = biological target: oxytocin receptor (rat (endogenous in striatal gliosomes and brain slices)) (UniProt P70536); assay: co-IP; Triton X-100-soluble membrane proteins (300 µg) of rat striatal gliosomes, precleared, 1 µg anti-A2A or anti-OTR antibody overnight at 4 °C, protein G-sepharose; 50 mM sodium borate, 0.1 mM EDTA, pH 7.5, 0.2% Triton-X; immunoblot of IP and output
[2] = biological target: oxytocin receptor (rat (endogenous in striatal gliosomes and brain slices)) (UniProt P70536); assay: proximity ligation; in situ PLA (Duolink) on 10–15 µm rat hemibrain slices, mouse anti-A2A and rabbit anti-OTR primary antibodies; confocal microscopy with GFAP and ezrin staining; ventral striatum
[3] = biological target: adenosine A2A receptor (rat (endogenous in striatal gliosomes and brain slices)) (UniProt P30543); assay: co-IP; Triton X-100-soluble membrane proteins (300 µg) of rat striatal gliosomes, precleared, 1 µg anti-A2A or anti-OTR antibody overnight at 4 °C, protein G-sepharose; 50 mM sodium borate, 0.1 mM EDTA, pH 7.5, 0.2% Triton-X; immunoblot of IP and output

Row | Molecule | binding [1] | binding [2] | binding [3]
1 | adenosine A2A receptor (from UniProt P30543 1-410) | binds | binds | 
2 | oxytocin receptor (from UniProt P70536 1-388) |  |  | binds
3 | B1 | binds |  | binds
